Assay results: publication PMC10296807
These are yes or no findings as the source states them, for the method shown. In cells and extracts the contact can be indirect. Some entries that bind do so weakly or less than the wild type. Sequences can lack the tags named with a protein.

Molecular target: T1, outer dense fiber protein ODF1, FLAG-tagged (mouse) (UniProt Q61999)
T1 sequence: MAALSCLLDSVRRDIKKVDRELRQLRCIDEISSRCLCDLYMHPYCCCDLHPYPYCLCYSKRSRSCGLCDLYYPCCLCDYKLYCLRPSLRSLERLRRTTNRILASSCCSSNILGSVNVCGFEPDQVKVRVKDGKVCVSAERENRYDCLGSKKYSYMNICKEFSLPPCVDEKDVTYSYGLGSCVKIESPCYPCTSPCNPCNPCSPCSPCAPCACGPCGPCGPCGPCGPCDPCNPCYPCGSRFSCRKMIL
Assay: co-IP; FLAG-Odf1 and HA-Tmem232 co-transfected into HEK293T cells, 48 h; lysate incubated with anti-FLAG antibody at 4 °C overnight, Protein A/G agarose beads; blotted with FLAG and HA antibodies

B1: transmembrane protein 232 (TMEM232), HA-tagged (protein, UniProt Q5K6N0-1 1-675)
chain: MKAYKPPVVNKFGVISSTYHEELLKSIFESSNRRKSQKPKPSFSISKEFILRFNHTDNPAEEEELLEQARRLIVRSKRKLGLKTLGSGKHVHLPTAWAEVIYLAQCKGEIQDEALNMLHASLDHVSFDHDQLPALFFLAESVLYRLCCDAFMKGYLYSVEIKLVKIGYLIFLRLFVFFLHGHLESFKQHLLRLQPYLYALHFSEPSYYKYPNIISNVQFILKTSEIICKRELHSEPFVESPDETEDPYSDLNHLQLNKRGYEVNHLLWHSVAAWSCVQNNRPQLTEVLEHLLFYKTQLQTKCWLDSALALMVLGEAAKLDMACLKTLMDLVTDFLENILSAQNQEENYNIYDTSWASEIVFTYTTIIAEVCLYAATSDLRKTALIGFCACKSPQQGISLTDKSEELPELDGASILTLLKYFSSRISDNCEKVIWIGYYGIVYNLVKMSWELQGEQDQDGLRNMIWQTLQKIKDYEQDPRIRCALVIAQAELNGPSDPFCTKATPNSGEEVFSKYIGWRIATTLSRLFFPSLDVAPPKTPVEVDLPRKHTIRERQPAKKRVLRFILKDHSSVVEVSMTPYPNFFTKADKKLEEIIDHHWQKDMEARKREEEAYKAQNQKDKEEKEKIHFQEIMKQRERKLNKQTKPYEIILSEKESGSEKKCGFFELKPSTAPNAK
In the case of B1, the binding is reported as “binds”.
